Reference: paper PMC7052203
Results are given in words; binding and its absence hold for the method and conditions named. In cells and extracts the contact can be indirect. Some results given as binding are weak or reduced against the parent protein; the word gives no strength.

Amino acid sequences for entries named in this document (tags omitted). A change or cut given only in a name is not applied to a line headed by its entry.
UniProt Q5S007: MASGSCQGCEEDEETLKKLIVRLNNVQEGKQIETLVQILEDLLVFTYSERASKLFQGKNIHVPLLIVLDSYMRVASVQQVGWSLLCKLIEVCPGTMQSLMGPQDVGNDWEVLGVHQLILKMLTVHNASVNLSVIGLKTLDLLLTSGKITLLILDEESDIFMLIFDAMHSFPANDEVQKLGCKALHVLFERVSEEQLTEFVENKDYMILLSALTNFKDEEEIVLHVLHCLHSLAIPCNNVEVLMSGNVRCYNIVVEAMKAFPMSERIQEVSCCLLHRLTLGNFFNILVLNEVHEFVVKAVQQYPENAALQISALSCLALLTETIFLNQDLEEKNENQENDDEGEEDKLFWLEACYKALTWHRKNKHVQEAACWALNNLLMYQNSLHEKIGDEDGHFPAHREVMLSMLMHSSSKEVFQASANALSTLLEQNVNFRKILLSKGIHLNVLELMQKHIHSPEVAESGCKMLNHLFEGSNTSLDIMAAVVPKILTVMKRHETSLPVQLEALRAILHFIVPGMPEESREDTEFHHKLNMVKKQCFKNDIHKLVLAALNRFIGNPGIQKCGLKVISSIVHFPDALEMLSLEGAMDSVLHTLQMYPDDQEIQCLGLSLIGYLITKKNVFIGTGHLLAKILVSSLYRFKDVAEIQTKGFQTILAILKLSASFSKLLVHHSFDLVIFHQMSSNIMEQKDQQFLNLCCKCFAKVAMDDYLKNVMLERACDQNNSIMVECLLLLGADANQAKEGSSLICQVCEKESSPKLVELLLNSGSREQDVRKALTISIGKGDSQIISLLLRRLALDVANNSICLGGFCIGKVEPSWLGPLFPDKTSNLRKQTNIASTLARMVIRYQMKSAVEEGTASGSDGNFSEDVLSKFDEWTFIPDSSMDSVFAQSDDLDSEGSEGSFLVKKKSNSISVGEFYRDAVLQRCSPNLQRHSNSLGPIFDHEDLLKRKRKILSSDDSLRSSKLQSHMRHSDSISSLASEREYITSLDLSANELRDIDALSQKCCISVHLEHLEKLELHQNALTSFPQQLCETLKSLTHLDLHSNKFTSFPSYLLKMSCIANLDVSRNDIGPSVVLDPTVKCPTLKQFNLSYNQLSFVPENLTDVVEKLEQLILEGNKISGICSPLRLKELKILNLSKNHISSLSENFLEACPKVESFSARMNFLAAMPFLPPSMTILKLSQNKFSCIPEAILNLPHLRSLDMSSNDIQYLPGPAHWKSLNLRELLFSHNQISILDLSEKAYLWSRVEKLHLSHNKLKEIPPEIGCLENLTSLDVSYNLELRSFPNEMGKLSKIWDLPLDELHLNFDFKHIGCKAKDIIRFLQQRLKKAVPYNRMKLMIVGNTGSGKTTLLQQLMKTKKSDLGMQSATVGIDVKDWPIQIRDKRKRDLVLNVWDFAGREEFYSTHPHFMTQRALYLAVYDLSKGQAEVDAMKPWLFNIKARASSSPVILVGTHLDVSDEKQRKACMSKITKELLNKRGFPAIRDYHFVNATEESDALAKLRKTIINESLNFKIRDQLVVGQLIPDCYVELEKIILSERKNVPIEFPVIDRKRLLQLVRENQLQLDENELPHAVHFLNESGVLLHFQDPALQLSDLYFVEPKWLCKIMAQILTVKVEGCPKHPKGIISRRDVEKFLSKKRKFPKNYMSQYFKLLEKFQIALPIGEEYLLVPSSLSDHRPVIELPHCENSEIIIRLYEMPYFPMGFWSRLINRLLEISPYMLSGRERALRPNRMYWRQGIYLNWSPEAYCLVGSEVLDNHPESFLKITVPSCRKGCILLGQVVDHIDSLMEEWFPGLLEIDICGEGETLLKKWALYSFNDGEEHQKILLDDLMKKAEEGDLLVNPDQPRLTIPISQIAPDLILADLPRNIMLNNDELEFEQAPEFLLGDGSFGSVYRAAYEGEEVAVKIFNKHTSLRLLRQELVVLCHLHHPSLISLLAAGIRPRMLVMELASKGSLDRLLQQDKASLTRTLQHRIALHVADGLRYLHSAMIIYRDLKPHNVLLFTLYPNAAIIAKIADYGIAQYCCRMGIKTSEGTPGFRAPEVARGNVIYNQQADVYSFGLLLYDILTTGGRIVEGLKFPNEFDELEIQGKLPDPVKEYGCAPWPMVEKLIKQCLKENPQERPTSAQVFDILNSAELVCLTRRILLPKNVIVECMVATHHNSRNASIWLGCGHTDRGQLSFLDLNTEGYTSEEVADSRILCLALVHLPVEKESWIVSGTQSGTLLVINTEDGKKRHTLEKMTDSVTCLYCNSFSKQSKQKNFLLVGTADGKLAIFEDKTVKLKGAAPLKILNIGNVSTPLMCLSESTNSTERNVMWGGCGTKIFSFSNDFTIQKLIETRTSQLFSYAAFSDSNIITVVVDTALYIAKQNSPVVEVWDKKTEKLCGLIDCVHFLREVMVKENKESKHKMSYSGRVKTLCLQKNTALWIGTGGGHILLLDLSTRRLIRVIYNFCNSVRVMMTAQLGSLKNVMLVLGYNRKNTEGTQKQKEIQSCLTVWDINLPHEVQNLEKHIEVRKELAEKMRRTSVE

Legend:
[1] = molecular target: Strep-FLAG full-length LRRK2 E193K variant (human) (UniProt Q5S007); assay: pull-down; Strep-FLAG LRRK2 constructs over-expressed in N2A cells, lysate (150 mM NaCl, 2 mM EDTA, 50 mM Tris-HCl, 1% NP-40, 0.25% sodium deoxycholate, pH 7.4) on Strep-Tactin Superflow resin 2 h at 4 °C, wash 300 mM NaCl, 50 mM Tris-HCl pH 7.4; co-isolated endogenous proteins detected by western blotting
[2] = molecular target: Strep-FLAG full-length LRRK2 wild-type (human) (UniProt Q5S007); assay: as above

- binding [1]: binds
- binding [2]: binds
Substance: synapsin I (from UniProt O88935 1-706)
